The results in this text go back to the supplement of paper PMC8104966.

The other results are listed elsewhere or left out. Single values are uncertain here, since repeats match poorly.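 U2OS cells carrying ACE2 were mixed with U2OS cells carrying full-length spike, and fusion was scored by imaging as the share of nuclei showing both cell types' fluorescent markers. A compound counts as an inhibitory hit when it is non-toxic and its fusion z-score falls below -3, meaning more than three standard deviations below the plate's DMSO wells.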

In this experiment the test system is U2OS ACE2 x SARS-CoV-2 spike co-culture. Nature of the experiment: cell-cell fusion (fraction fused) z-score vs plate DMSO control; higher = more fusion. Particulars: 30 µM; 5 h; toxicity class: non-toxic, passed QC.
`CCCCNc1cc(C(=O)O)cc(S(N)(=O)=O)c1Oc1ccccc1` [Bumetanide]: the “cell-cell fusion (z-score)” value was inactive: 2.08.

Regarding `Cc1cc(Cl)ccc1OCCCC(=O)NO` [Droxinostat], the “cell-cell fusion (z-score)” value was inactive: 0.0624.

As for `CNC(=O)c1cc(Oc2ccc(NC(=O)Nc3ccc(Cl)c(C(F)(F)F)c3)c(F)c2)ccn1` [Regorafenib (BAY 73-4506)], the “cell-cell fusion (z-score)” value is inactive: 1.52.

`NC(=O)c1ccccc1O`: the “cell-cell fusion (z-score)” value is inactive: 0.359.

As for `Cc1ncc([N+](=O)[O-])n1CCO`, the “cell-cell fusion (z-score)” value was inactive: 0.599.

On to `NNC(=O)c1ccncc1`, for which the “cell-cell fusion (z-score)” value is inactive: -0.639.

In the case of `CCCCOC(=O)c1ccc(O)cc1`, the “cell-cell fusion (z-score)” value is inactive: 2.28.

In the case of `CC1(C)CCC2=C(O1)c1ccccc1C(=O)C2=O` [beta-Lapachone], the “cell-cell fusion (z-score)” value was inactive: -0.476.

`CC1(C)CCC2=C(O1)c1ccccc1C(=O)C2=O` [beta-LAPACHONE]: the “cell-cell fusion (z-score)” value is inactive: -2.6.

Take `Cc1[nH]c2ccccc2c1CCNCc1ccc(/C=C/C(=O)NO)cc1` [Panobinostat]: the “cell-cell fusion (z-score)” value is inactive: 1.98.

In the case of `COC(=O)[C@H]1[C@H]2C[C@@H]3c4[nH]c5cc(OC)ccc5c4CCN3C[C@H]2C[C@@H](OC(=O)c2cc(OC)c(OC)c(OC)c2)[C@@H]1OC` [Reserpine], the “cell-cell fusion (z-score)” value was inactive: 1.27.

As for `CC(C)OC(=O)C1=CN(C(=O)c2ccc(F)c(F)c2)CC(C)(C)c2c1[nH]c1ccccc21`, the “cell-cell fusion (z-score)” value is inactive: 1.98.

Take `O=C([O-])Cc1ccccc1Nc1c(Cl)cccc1Cl.[K+]` [Diclofenac Potassium]: the “cell-cell fusion (z-score)” value was inactive: 2.67.

For `CCOc1ccc2ccccc2c1NC(=O)[C@@H]1C(=O)N2C(C(=O)[O-])C(C)(C)S[C@H]12.[Na+]` (some centres not stated), the “cell-cell fusion (z-score)” value was inactive: 0.445.

Consider `Oc1cccc2c(O)nccc12` [1,5-Isoquinolinediol], for which the “cell-cell fusion (z-score)” value is inactive: 1.15.

On to `N.N.[Cl][Pt][Cl]`, for which the “cell-cell fusion (z-score)” value is inactive: 0.609.

For the compound `N.N.[Cl][Pt][Cl]` [Cisplatin], the “cell-cell fusion (z-score)” value is inactive: 0.564.

Consider `O=Nc1ccc2oc(=O)ccc2c1` [6-Nitroso-1,2-benzopyrone], for which the “cell-cell fusion (z-score)” value was inactive: 2.8.

Take `O=C(NCCCNc1nc(Nc2cccc(NC(=O)N3CCCC3)c2)ncc1I)c1cccs1`: the “cell-cell fusion (z-score)” value is inactive: 1.97.

As to `Cc1ccccc1C(OCCN(C)C)c1ccccc1.Cl` (configuration not stated) [Orphenadrine hydrochloride], the “cell-cell fusion (z-score)” value is inactive: 2.25.

On to `CC(=O)Oc1ccc(-c2coc3c4c(c(CC=C(C)C)c(OC(C)=O)c3c2=O)OC(C)(C)C=C4)cc1OC(C)=O`, for which the “cell-cell fusion (z-score)” value is inactive: 3.29.

As to `N#CC[C@H](C1CCCC1)n1cc(-c2ncnc3[nH]ccc23)cn1.O=P(O)(O)O`, the “cell-cell fusion (z-score)” value was inactive: -0.275.
